Measurements taken from the supplement of paper PMC12823440, “Inhibitors supercharge kinase turnover through native proteolytic circuits” (Nature, 2025).
Counter-ions that a name gives are not always drawn. Some of the results follow. Hit calls seldom repeat between salt and free forms of one compound.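 In K562 cells expressing nanoluciferase-fused kinases, luminescence was recorded at 4 h intervals between 2 and 18 h, normalized as percent of control with DMSO at 100% and a positive control at 0%. A significant (2 sigma) signal drop marks a time point as decreased. The authors' rule for a hit is not shown and takes in more than the number of time points.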

Sequences of proteins named here, by UniProt entry; tags and fusion partners are left off. A change or cut given only in a name is not applied to a line headed by its entry.
UniProt P50613: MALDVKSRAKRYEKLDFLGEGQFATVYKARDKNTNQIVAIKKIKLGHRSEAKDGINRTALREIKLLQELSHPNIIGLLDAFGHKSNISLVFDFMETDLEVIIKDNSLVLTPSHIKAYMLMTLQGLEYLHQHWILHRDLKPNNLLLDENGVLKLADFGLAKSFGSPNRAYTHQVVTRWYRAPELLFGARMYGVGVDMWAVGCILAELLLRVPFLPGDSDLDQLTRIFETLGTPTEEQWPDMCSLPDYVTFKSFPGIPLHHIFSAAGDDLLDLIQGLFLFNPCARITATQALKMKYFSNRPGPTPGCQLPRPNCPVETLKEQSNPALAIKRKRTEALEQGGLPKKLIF
UniProt P50750, whole entry: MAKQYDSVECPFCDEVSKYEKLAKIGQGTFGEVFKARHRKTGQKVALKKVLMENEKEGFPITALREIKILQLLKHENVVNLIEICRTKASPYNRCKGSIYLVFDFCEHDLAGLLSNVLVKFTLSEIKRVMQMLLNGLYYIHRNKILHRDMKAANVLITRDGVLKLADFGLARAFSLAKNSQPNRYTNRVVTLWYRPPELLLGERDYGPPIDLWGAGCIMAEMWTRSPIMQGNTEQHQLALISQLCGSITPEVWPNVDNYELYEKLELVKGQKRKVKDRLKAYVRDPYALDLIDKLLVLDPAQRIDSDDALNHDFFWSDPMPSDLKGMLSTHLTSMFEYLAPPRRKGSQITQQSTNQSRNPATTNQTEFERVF
UniProt O96017, whole entry: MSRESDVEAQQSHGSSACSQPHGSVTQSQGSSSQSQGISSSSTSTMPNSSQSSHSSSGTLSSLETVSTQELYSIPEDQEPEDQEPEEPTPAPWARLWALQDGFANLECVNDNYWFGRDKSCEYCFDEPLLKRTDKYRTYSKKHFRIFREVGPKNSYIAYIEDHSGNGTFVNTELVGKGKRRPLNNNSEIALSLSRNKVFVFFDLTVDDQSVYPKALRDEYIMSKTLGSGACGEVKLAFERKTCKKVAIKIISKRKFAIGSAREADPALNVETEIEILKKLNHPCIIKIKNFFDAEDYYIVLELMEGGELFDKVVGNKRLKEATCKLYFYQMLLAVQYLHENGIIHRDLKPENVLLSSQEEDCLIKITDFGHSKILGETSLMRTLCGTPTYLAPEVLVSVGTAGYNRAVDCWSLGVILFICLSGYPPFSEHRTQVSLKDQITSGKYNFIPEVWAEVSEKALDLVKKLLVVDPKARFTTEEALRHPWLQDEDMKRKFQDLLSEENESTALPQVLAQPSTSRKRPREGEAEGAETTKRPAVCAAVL
UniProt P07333, whole entry: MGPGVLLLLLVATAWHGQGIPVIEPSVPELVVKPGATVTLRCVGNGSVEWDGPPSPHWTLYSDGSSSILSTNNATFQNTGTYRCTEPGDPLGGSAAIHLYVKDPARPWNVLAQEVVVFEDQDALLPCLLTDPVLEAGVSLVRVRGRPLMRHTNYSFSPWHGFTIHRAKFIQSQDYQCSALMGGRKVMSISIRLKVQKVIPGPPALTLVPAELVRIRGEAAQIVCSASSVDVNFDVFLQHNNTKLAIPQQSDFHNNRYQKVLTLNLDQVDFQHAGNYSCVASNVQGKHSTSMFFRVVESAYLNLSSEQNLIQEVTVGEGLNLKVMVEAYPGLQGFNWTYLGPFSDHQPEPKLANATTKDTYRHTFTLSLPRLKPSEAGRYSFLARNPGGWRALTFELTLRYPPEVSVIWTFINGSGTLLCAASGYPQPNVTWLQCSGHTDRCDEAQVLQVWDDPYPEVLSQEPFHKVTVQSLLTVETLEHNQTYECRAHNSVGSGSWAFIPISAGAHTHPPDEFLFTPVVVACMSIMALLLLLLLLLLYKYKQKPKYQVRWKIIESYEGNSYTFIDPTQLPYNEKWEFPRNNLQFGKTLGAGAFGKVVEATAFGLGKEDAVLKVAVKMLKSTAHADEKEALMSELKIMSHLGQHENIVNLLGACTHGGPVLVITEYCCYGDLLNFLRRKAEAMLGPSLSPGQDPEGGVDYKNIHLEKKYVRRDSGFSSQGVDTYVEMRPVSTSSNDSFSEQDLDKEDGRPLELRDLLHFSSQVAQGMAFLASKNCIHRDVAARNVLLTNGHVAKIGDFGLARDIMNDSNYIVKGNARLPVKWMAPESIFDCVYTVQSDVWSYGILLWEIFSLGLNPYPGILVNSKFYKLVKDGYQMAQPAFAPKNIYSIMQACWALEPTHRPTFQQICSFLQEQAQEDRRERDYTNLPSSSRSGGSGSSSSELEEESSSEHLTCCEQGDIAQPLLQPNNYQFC
UniProt P41240: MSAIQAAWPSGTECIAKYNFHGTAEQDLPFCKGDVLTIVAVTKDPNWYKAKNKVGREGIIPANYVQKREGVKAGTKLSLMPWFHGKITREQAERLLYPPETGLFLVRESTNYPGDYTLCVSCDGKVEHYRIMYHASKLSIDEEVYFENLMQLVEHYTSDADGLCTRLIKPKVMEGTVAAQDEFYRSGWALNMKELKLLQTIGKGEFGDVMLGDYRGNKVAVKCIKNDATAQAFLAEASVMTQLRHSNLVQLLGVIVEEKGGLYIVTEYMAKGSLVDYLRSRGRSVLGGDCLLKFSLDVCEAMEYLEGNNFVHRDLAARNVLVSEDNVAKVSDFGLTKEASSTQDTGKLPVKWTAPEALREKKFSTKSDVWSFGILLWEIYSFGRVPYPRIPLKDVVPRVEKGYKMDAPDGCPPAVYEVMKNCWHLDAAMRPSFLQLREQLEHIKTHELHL
UniProt P48729: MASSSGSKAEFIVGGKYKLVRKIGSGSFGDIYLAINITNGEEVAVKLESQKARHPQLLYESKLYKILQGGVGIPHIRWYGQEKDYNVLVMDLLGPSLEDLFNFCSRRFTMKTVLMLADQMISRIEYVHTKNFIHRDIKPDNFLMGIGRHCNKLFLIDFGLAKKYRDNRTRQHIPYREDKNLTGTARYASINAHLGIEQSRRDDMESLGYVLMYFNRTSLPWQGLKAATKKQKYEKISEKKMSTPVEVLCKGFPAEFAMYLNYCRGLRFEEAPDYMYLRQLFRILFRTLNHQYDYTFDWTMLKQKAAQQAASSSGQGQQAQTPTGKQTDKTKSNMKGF
UniProt P48730: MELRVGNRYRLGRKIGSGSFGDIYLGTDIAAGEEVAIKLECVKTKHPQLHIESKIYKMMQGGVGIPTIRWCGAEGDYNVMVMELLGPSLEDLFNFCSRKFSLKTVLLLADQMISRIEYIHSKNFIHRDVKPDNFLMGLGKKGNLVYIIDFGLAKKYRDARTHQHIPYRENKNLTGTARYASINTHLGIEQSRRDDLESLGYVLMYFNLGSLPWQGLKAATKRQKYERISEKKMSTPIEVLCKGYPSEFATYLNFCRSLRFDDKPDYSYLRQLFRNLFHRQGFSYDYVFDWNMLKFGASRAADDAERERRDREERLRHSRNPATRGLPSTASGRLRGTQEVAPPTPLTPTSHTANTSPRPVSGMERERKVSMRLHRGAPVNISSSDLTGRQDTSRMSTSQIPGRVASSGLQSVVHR
UniProt Q08345: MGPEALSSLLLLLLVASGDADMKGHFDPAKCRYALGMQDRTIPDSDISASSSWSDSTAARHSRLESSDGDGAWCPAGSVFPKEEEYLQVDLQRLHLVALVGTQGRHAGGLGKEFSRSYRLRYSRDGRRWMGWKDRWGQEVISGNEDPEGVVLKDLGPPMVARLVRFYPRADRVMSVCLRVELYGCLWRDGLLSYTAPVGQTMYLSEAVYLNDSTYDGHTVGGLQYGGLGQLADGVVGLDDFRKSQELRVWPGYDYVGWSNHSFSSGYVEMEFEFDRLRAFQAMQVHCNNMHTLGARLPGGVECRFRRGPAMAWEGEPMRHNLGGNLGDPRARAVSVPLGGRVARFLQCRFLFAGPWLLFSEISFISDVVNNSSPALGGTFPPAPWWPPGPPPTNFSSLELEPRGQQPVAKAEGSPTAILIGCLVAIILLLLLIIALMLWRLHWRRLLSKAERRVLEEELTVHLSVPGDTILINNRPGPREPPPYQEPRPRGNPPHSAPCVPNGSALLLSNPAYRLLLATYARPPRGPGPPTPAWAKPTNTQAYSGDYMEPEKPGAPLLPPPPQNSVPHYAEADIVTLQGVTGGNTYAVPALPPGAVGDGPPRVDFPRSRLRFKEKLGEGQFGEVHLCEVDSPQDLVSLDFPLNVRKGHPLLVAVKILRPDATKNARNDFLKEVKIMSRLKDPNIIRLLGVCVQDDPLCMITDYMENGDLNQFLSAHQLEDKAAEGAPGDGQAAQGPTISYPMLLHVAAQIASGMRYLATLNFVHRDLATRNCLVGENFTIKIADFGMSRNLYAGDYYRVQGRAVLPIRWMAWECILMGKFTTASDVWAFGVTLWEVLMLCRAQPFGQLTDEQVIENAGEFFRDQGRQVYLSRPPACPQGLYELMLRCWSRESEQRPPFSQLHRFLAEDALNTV
UniProt Q9Y463, whole entry, looked up: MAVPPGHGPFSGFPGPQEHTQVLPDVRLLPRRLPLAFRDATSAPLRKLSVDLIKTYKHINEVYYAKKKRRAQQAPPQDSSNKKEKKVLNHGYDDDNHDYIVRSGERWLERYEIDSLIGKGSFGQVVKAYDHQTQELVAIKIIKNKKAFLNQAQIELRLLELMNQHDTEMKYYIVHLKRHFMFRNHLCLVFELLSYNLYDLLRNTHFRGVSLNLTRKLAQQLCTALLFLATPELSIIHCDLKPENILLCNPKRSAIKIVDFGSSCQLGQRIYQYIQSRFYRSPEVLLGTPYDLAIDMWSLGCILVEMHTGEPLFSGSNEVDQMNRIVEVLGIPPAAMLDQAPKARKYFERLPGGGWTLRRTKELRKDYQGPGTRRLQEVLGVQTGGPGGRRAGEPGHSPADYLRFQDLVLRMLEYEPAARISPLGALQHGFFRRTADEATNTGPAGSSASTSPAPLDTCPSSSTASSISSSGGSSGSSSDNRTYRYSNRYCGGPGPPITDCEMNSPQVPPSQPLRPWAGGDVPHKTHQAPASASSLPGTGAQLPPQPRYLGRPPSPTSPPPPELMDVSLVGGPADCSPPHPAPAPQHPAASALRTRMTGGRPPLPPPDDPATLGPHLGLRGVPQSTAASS
UniProt Q92630: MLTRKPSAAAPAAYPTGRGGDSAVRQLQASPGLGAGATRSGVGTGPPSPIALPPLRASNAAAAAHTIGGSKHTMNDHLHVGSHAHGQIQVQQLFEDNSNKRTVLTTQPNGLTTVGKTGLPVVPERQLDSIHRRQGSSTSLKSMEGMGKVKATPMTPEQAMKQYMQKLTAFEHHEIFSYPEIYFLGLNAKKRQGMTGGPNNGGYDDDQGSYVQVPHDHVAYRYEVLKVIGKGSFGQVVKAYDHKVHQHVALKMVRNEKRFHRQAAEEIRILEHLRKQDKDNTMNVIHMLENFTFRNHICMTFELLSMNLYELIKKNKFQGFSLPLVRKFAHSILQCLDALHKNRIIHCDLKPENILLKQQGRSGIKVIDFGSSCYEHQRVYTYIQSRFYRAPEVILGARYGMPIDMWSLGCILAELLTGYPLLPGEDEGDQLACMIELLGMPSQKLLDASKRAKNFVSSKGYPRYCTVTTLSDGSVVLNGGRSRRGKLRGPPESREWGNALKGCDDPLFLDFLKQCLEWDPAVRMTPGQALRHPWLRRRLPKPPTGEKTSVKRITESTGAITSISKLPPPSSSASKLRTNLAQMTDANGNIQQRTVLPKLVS

Legend:
Experiment in all cases: kinase-Nluc reporter destabilization hit call (1 = scored as downregulated) (binary); higher = compound decreases kinase abundance
Settings in all cases: K562, 2-18 h
CDK7 = CDK7 (UniProt P50613)
CDK9 = CDK9 (UniProt P50750)
CHEK2 = CHEK2 (UniProt O96017)
CSF1R = CSF1R (UniProt P07333)
CSK = CSK (UniProt P41240)
CSNK1A1 = CSNK1A1 (UniProt P48729)
CSNK1D = CSNK1D (UniProt P48730)
DDR1 = DDR1 (UniProt Q08345)
DYRK1B = DYRK1B (UniProt Q9Y463)
DYRK2 = DYRK2 (UniProt Q92630)

Measured: kinase-Nluc reporter destabilization hit call

CNC(=O)c1ccc(Nc2ncc(C(F)(F)F)c(NCc3nccnc3N(C)S(C)(=O)=O)n2)cc1 [Defactinib (hydrochloride)]
inactive: CDK7; 10 µM 0 | CDK9; 10 µM 0 | CHEK2; 10 µM 0 | CSF1R; 10 µM 0 | CSK; 10 µM 0 | CSNK1A1; 10 µM 0 | CSNK1D; 10 µM 0 | DDR1; 10 µM 0 | DYRK1B; 10 µM 0 | DYRK2; 10 µM 0

O=C(c1ccc(F)c(F)c1Nc1ccc(I)cc1F)N1CC(O)([C@@H]2CCCCN2)C1 [Cobimetinib]
inactive: CDK7; 10 µM 0 | CDK9; 10 µM 0 | CHEK2; 10 µM 0 | CSF1R; 10 µM 0 | CSK; 10 µM 0 | CSNK1A1; 10 µM 0 | CSNK1D; 10 µM 0 | DDR1; 10 µM 0 | DYRK1B; 10 µM 0 | DYRK2; 10 µM 0

CN(C)C/C=C/C(=O)Nc1cc2c(Nc3ccc(F)c(Cl)c3)ncnc2cc1O[C@H]1CCOC1 [Afatinib]
active: CDK9; 10 µM 1
inactive: CDK7; 10 µM 0 | CHEK2; 10 µM 0 | CSF1R; 10 µM 0 | CSK; 10 µM 0 | CSNK1A1; 10 µM 0 | CSNK1D; 10 µM 0 | DDR1; 10 µM 0 | DYRK1B; 10 µM 0 | DYRK2; 10 µM 0

O=C(O)c1ccc2c(c1)nc(Nc1cccc(Cl)c1)c1ccncc12 [Silmitasertib]
inactive: CDK7; 10 µM 0 | CHEK2; 10 µM 0 | CSF1R; 10 µM 0 | CSK; 10 µM 0 | CSNK1A1; 10 µM 0 | CSNK1D; 10 µM 0 | DDR1; 10 µM 0 | DYRK1B; 10 µM 0 | DYRK2; 10 µM 0
active: CDK9; 10 µM 1

2 records picked at random from the list so far, as already listed:
O=C(c1ccc(F)c(F)c1Nc1ccc(I)cc1F)N1CC(O)([C@@H]2CCCCN2)C1 [Cobimetinib]
inactive: CDK7; 10 µM 0 | CDK9; 10 µM 0 | CHEK2; 10 µM 0 | CSF1R; 10 µM 0 | CSK; 10 µM 0 | CSNK1A1; 10 µM 0 | CSNK1D; 10 µM 0 | DDR1; 10 µM 0 | DYRK1B; 10 µM 0 | DYRK2; 10 µM 0

O=C(O)c1ccc2c(c1)nc(Nc1cccc(Cl)c1)c1ccncc12 [Silmitasertib]
inactive: CDK7; 10 µM 0 | CHEK2; 10 µM 0 | CSF1R; 10 µM 0 | CSK; 10 µM 0 | CSNK1A1; 10 µM 0 | CSNK1D; 10 µM 0 | DDR1; 10 µM 0 | DYRK1B; 10 µM 0 | DYRK2; 10 µM 0
active: CDK9; 10 µM 1

(continued)

N=C(N)NC(=O)c1nc(Cl)c(N)nc1N [Amiloride hydrochloride dihydrate]
inactive: CDK7; 10 µM 0 | CDK9; 10 µM 0 | CHEK2; 10 µM 0 | CSF1R; 10 µM 0 | CSK; 10 µM 0 | CSNK1A1; 10 µM 0 | CSNK1D; 10 µM 0 | DDR1; 10 µM 0 | DYRK1B; 10 µM 0 | DYRK2; 10 µM 0

COc1cc2c(Oc3ccc4[nH]c(C)cc4c3F)ncnc2cc1OCCCN1CCCC1 [Cediranib (maleate)]
inactive: CDK7; 2.5 µM 0 | CDK9; 2.5 µM 0 | CHEK2; 2.5 µM 0 | CSF1R; 2.5 µM 0 | CSK; 2.5 µM 0 | CSNK1A1; 2.5 µM 0 | CSNK1D; 2.5 µM 0 | DDR1; 2.5 µM 0 | DYRK1B; 2.5 µM 0 | DYRK2; 2.5 µM 0

CN(C)C(=O)c1cc2cnc(Nc3ccc(N4CCNCC4)cn3)nc2n1C1CCCC1 [Ribociclib]
inactive: CDK7; 10 µM 0 | CDK9; 10 µM 0 | CHEK2; 10 µM 0 | CSF1R; 10 µM 0 | CSK; 10 µM 0 | CSNK1A1; 10 µM 0 | CSNK1D; 10 µM 0 | DDR1; 10 µM 0 | DYRK1B; 10 µM 0 | DYRK2; 10 µM 0

COc1cc2c(-c3cnn4cc(N5CCC(N6CCN(C)CC6)CC5)cnc34)ccnc2cc1F [ALK2-IN-4 (succinate)]
inactive: CDK7; 10 µM 0 | CDK9; 10 µM 0 | CHEK2; 10 µM 0 | CSF1R; 10 µM 0 | CSK; 10 µM 0 | CSNK1A1; 10 µM 0 | CSNK1D; 10 µM 0 | DDR1; 10 µM 0 | DYRK1B; 10 µM 0 | DYRK2; 10 µM 0

C[S+]([O-])c1ccc(-c2nc(-c3ccc(F)cc3)c(-c3ccncc3)[nH]2)cc1 (stereo not given)
inactive: CDK7; 10 µM 0 | CDK9; 10 µM 0 | CHEK2; 10 µM 0 | CSF1R; 10 µM 0 | CSK; 10 µM 0 | CSNK1A1; 10 µM 0 | CSNK1D; 10 µM 0 | DDR1; 10 µM 0 | DYRK1B; 10 µM 0 | DYRK2; 10 µM 0

CN(C)C(=O)c1cc2cnc(Nc3ccc(N4CCNCC4)cn3)nc2n1C1CCCC1 [Ribociclib succinate hydrate]
inactive: CDK7; 2.5 µM 0 | CDK9; 2.5 µM 0 | CHEK2; 2.5 µM 0 | CSF1R; 2.5 µM 0 | CSK; 2.5 µM 0 | CSNK1A1; 2.5 µM 0 | CSNK1D; 2.5 µM 0 | DDR1; 2.5 µM 0 | DYRK1B; 2.5 µM 0 | DYRK2; 2.5 µM 0

C#Cc1cccc(Nc2ncnc3cc(OCCOC)c(OCCO)cc23)c1 [Desmethyl Erlotinib]
inactive: CDK7; 10 µM 0 | CDK9; 10 µM 0 | CHEK2; 10 µM 0 | CSF1R; 10 µM 0 | CSK; 10 µM 0 | CSNK1A1; 10 µM 0 | CSNK1D; 10 µM 0 | DDR1; 10 µM 0 | DYRK1B; 10 µM 0 | DYRK2; 10 µM 0

CN(C)C(=O)c1cc2cnc(Nc3ccc(N4CCNCC4)cn3)nc2n1C1CCCC1 [Ribociclib hydrochloride]
inactive: CDK7; 2.5 µM 0 | CDK9; 2.5 µM 0 | CHEK2; 2.5 µM 0 | CSF1R; 2.5 µM 0 | CSK; 2.5 µM 0 | CSNK1A1; 2.5 µM 0 | CSNK1D; 2.5 µM 0 | DDR1; 2.5 µM 0 | DYRK1B; 2.5 µM 0 | DYRK2; 2.5 µM 0

CC(C)Nc1cc(-c2c[nH]c(C(=O)N[C@H](CO)c3cccc(Cl)c3)c2)c(Cl)cn1 [Ulixertinib]
inactive: CDK7; 10 µM 0 | CDK9; 10 µM 0 | CHEK2; 10 µM 0 | CSF1R; 10 µM 0 | CSK; 10 µM 0 | CSNK1A1; 10 µM 0 | CSNK1D; 10 µM 0 | DDR1; 10 µM 0 | DYRK1B; 10 µM 0 | DYRK2; 10 µM 0

COc1cc2c(Oc3ccc4[nH]c(C)cc4c3F)ncnc2cc1OCCCN1CCCC1 [Cediranib]
inactive: CDK7; 2.5 µM 0 | CDK9; 2.5 µM 0 | CHEK2; 2.5 µM 0 | CSF1R; 2.5 µM 0 | CSK; 2.5 µM 0 | CSNK1A1; 2.5 µM 0 | CSNK1D; 2.5 µM 0 | DDR1; 2.5 µM 0 | DYRK1B; 2.5 µM 0 | DYRK2; 2.5 µM 0

COc1cc(/C=C/C(=O)O)ccc1O [Ferulic acid]
inactive: CDK7; 10 µM 0 | CDK9; 10 µM 0 | CHEK2; 10 µM 0 | CSF1R; 10 µM 0 | CSK; 10 µM 0 | CSNK1A1; 10 µM 0 | CSNK1D; 10 µM 0 | DDR1; 10 µM 0 | DYRK1B; 10 µM 0 | DYRK2; 10 µM 0
